Assay results as given in US9260441B2, “Heteroaryl compounds with cyclic bridging unit” (Intervet Inc., priority 2012, dated 2016).
Some of these results come from one statement about several compounds together.

Test system: Ascaridia galli larval stage 3 (L3) and Oesophagostomum dentatum larval stages 3 and 4 (L3, L4)
Assay: Activity against Ascaridia galli and Oesophagostomum dentatum: in vitro larval test, minimum effective concentration
Format: cell-based
Settings: activity against one or both of the nematodes (Ascaridia galli L3; Oesophagostomum dentatum L3 and L4), 96-well plates, 20 larvae per well, microscopic examination vs DMSO-control

| Compound | minimum effective concentration (MEC) |
| --- | --- |
| Cc1cc[n+]([O-])c(N2CCN(C(=O)/C=C/C(F)(F)F)CC2)c1 [Compound E-4] | ≤ 50 µM |
| Cc1c(N2CCN(C(=O)/C=C/C(F)(F)F)CC2)ccc[n+]1[O-] [Compound E-2, (E)-4,4,4-trifluoro-1-[4-(2-methyl-1-oxo-3-pyridyl)piperazin-1-yl]but-2-en-1-one] | ≤ 50 µM |
